Residue numbers refer to the chain shown, from its start. The exact form of at least one protein or probe is not confirmed. For some of these results: Negatives hold for the conditions tested. For some of these results: At least one verdict rests on a figure or table, not on a statement of the authors. Protein sequences can lack the tags named with them. For some of these results: A weaker result is weaker than the reference pair of the same experiment.
Key:
[1] = molecular target: T1, F-CphI H102T (cyanophage S-PM2) (UniProt Q7Y4H4); test: EMSA; settings: no Mg2+ added, Kd higher than wild type, value only in figure; EMSA: 10 mM Tris-HCl pH 8.0, 2% glycerol, 2 ug/ml poly-dIdC, 2 ug/ml BSA, 0.2 mM DTT, on ice 15 min, 2 nM labeled DNA; 8% native PAGE in 1X TBE; recombinant protein; protein details: C-terminal Myc-His; label: 5'-32P on top strand
T1 sequence (looked up, limits assumed): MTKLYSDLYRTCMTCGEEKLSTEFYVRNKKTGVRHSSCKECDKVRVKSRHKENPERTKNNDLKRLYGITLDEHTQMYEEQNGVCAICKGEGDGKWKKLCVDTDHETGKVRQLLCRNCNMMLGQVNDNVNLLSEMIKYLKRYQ

[2] = molecular target: T2, F-CphI R110A (cyanophage S-PM2) (UniProt Q7Y4H4); test: EMSA; settings: no Mg2+ added; EMSA: 10 mM Tris-HCl pH 8.0, 2% glycerol, 2 ug/ml poly-dIdC, 2 ug/ml BSA, 0.2 mM DTT, on ice 15 min, 2 nM labeled DNA; 8% native PAGE in 1X TBE; recombinant protein; protein details: C-terminal Myc-His; label: 5'-32P on top strand
T2 sequence (looked up, limits assumed): T1 sequence (looked up, limits assumed) with T102H, R110A

[3] = molecular target: T3, F-CphI R110T (cyanophage S-PM2) (UniProt Q7Y4H4); test: EMSA; settings: no Mg2+ added; EMSA: 10 mM Tris-HCl pH 8.0, 2% glycerol, 2 ug/ml poly-dIdC, 2 ug/ml BSA, 0.2 mM DTT, on ice 15 min, 2 nM labeled DNA; 8% native PAGE in 1X TBE; recombinant protein; protein details: C-terminal Myc-His; label: 5'-32P on top strand
T3 sequence (looked up, limits assumed): T1 sequence (looked up, limits assumed) with T102H, R110T

[4] = molecular target: T4, F-CphI D101N (cyanophage S-PM2) (UniProt Q7Y4H4); test: EMSA; settings: no Mg2+ added, Kd higher than wild type, value only in figure; EMSA: 10 mM Tris-HCl pH 8.0, 2% glycerol, 2 ug/ml poly-dIdC, 2 ug/ml BSA, 0.2 mM DTT, on ice 15 min, 2 nM labeled DNA; 8% native PAGE in 1X TBE; recombinant protein; protein details: C-terminal Myc-His; label: 5'-32P on top strand
T4 sequence (looked up, limits assumed): T1 sequence (looked up, limits assumed) with D101N, T102H

[5] = molecular target: T5, F-CphI N118A (cyanophage S-PM2) (UniProt Q7Y4H4); test: EMSA; settings: no Mg2+ added; EMSA: 10 mM Tris-HCl pH 8.0, 2% glycerol, 2 ug/ml poly-dIdC, 2 ug/ml BSA, 0.2 mM DTT, on ice 15 min, 2 nM labeled DNA; 8% native PAGE in 1X TBE; recombinant protein; protein details: C-terminal Myc-His; label: 5'-32P on top strand
T5 sequence (looked up, limits assumed): T1 sequence (looked up, limits assumed) with T102H, N118A

[6] = molecular target: T1, F-CphI H102T (cyanophage S-PM2); test: competition with a labelled probe; settings: 200 nM protein, 2 nM labeled N1, competitor 0-20 nM; EMSA: 10 mM Tris-HCl pH 8.0, 2% glycerol, 2 ug/ml poly-dIdC, 2 ug/ml BSA, 0.2 mM DTT, on ice 15 min, 2 nM labeled DNA; 8% native PAGE in 1X TBE; recombinant protein; protein details: C-terminal Myc-His; label: unlabeled
[7] = molecular target: T4, F-CphI D101N (cyanophage S-PM2); test: competition with a labelled probe; settings: 200 nM protein, 2 nM labeled N1, competitor 0-20 nM; EMSA: 10 mM Tris-HCl pH 8.0, 2% glycerol, 2 ug/ml poly-dIdC, 2 ug/ml BSA, 0.2 mM DTT, on ice 15 min, 2 nM labeled DNA; 8% native PAGE in 1X TBE; recombinant protein; protein details: C-terminal Myc-His; label: unlabeled

| Sequence | binding result [1] | binding result [2] | binding result [3] | binding result [4] | binding result [5] | binding result [6] | binding result [7] |
| --- | --- | --- | --- | --- | --- | --- | --- |
| TGGTCTGGGTATGGAAGTGATGCACGAGCGCAACGCTCACAACTTCCCTCTCGACCTTGC (double strand) [SBM4-60Top duplex] | binds more weakly | no binding | no binding | binds more weakly | no binding |  |  |
| TAGACGGATGAATATTGAGGACAGAAGTTGGATTTGGTAGT (double strand) [endoV41A duplex] |  |  |  |  |  | no binding | no binding |

From publication PMC6083498, “F-CphI represents a new homing endonuclease family using the Endo VII catalytic motif”
